Results published in the supplement of paper PMC7661543.
Differences between knockout arms are mostly noise.

System: BT-20
Assay: relative cell number vs DMSO control (72 h) (% of DMSO); higher = less growth inhibition (more cells)
Experimental: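 QMAP-Seq: a pool of 5 breast cancer cell lines (ZR-75-1, SKBR3, HCC-38, MDA-MB-231, BT-20), each carrying 12 doxycycline-inducible Cas9 sgRNA perturbations (11 knockouts plus non-targeting sgNT), was treated with compounds for 72 h at four 10-fold doses (10 nM-10 uM or 1 nM-1 uM range). Barcodes were amplified and sequenced, and cell number was interpolated from 293T spike-in standard curves. The result is expressed as % of the median of DMSO wells. Two biological replicates.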

CN1CCN(c2ccc(C(=O)Nc3n[nH]c4ccc(Cc5cc(F)cc(F)c5)cc34)c(NC3CCOCC3)c2)CC1 [Entrectinib]
Settings | relative cell number
sgRNA knockout: sgATF3, 1 nM | 90.4
sgRNA knockout: sgATF3, 10 nM | 99.9
sgRNA knockout: sgATF3, 100 nM | 96.9
sgRNA knockout: sgATF3, 1000 nM | 88.8
sgRNA knockout: sgATF4, 1 nM | 89.1
sgRNA knockout: sgATF4, 10 nM | 97.1
sgRNA knockout: sgATF4, 100 nM | 91.7
sgRNA knockout: sgATF4, 1000 nM | 95.2
sgRNA knockout: sgATF6, 1 nM | 99.3
sgRNA knockout: sgATF6, 10 nM | 89.5
sgRNA knockout: sgATF6, 100 nM | 87.6
sgRNA knockout: sgATF6, 1000 nM | 90.2
sgRNA knockout: sgATG7, 1 nM | 93
sgRNA knockout: sgATG7, 10 nM | 114
sgRNA knockout: sgATG7, 100 nM | 99.6
sgRNA knockout: sgATG7, 1000 nM | 108
sgRNA knockout: sgERN1, 1 nM | 88.7
sgRNA knockout: sgERN1, 10 nM | 111
sgRNA knockout: sgERN1, 100 nM | 84.2
sgRNA knockout: sgERN1, 1000 nM | 95.16
sgRNA knockout: sgHSF1, 1 nM | 92.1
sgRNA knockout: sgHSF1, 10 nM | 85.2
sgRNA knockout: sgHSF1, 100 nM | 93.6
sgRNA knockout: sgHSF1, 1000 nM | 90.3
sgRNA knockout: sgHSF2, 1 nM | 86.6
sgRNA knockout: sgHSF2, 10 nM | 103
sgRNA knockout: sgHSF2, 100 nM | 92.7
sgRNA knockout: sgHSF2, 1000 nM | 87.66
sgRNA knockout: sgKEAP1, 1 nM | 85.1
sgRNA knockout: sgKEAP1, 10 nM | 103
sgRNA knockout: sgKEAP1, 100 nM | 86
sgRNA knockout: sgKEAP1, 1000 nM | 85.3
sgRNA knockout: sgNFE2L2, 1 nM | 90.8
sgRNA knockout: sgNFE2L2, 10 nM | 98.5
sgRNA knockout: sgNFE2L2, 100 nM | 98.5
sgRNA knockout: sgNFE2L2, 1000 nM | 97.7
sgRNA knockout: sgSLC35F2, 1 nM | 96.6
sgRNA knockout: sgSLC35F2, 10 nM | 99.4
sgRNA knockout: sgSLC35F2, 100 nM | 102
sgRNA knockout: sgSLC35F2, 1000 nM | 95.6
sgRNA knockout: sgXBP1, 1 nM | 96.5
sgRNA knockout: sgXBP1, 10 nM | 99
sgRNA knockout: sgXBP1, 100 nM | 88.5
sgRNA knockout: sgXBP1, 1000 nM | 96.8

S=c1nc[nH]c2nc[nH]c12 [6-Mercaptopurine]
Settings | relative cell number
sgRNA knockout: sgATF3, 10 nM | 108
sgRNA knockout: sgATF3, 100 nM | 75.3
sgRNA knockout: sgATF3, 1000 nM | 91.3
sgRNA knockout: sgATF3, 10000 nM | 66.2
sgRNA knockout: sgATF4, 10 nM | 99.1
sgRNA knockout: sgATF4, 100 nM | 80.1
sgRNA knockout: sgATF4, 1000 nM | 83.6
sgRNA knockout: sgATF4, 10000 nM | 66.6
sgRNA knockout: sgATF6, 10 nM | 90.8
sgRNA knockout: sgATF6, 100 nM | 93.2
sgRNA knockout: sgATF6, 1000 nM | 95
sgRNA knockout: sgATF6, 10000 nM | 76.8
sgRNA knockout: sgATG7, 10 nM | 104
sgRNA knockout: sgATG7, 100 nM | 85.3
sgRNA knockout: sgATG7, 1000 nM | 95.9
sgRNA knockout: sgATG7, 10000 nM | 68
sgRNA knockout: sgERN1, 10 nM | 108
sgRNA knockout: sgERN1, 100 nM | 89.8
sgRNA knockout: sgERN1, 1000 nM | 101
sgRNA knockout: sgERN1, 10000 nM | 68
sgRNA knockout: sgHSF1, 10 nM | 106
sgRNA knockout: sgHSF1, 100 nM | 93
sgRNA knockout: sgHSF1, 1000 nM | 109
sgRNA knockout: sgHSF1, 10000 nM | 72.8
sgRNA knockout: sgHSF2, 10 nM | 103
sgRNA knockout: sgHSF2, 100 nM | 80.7
sgRNA knockout: sgHSF2, 1000 nM | 85.2
sgRNA knockout: sgHSF2, 10000 nM | 69.4
sgRNA knockout: sgKEAP1, 10 nM | 86.3
sgRNA knockout: sgKEAP1, 100 nM | 91.9
sgRNA knockout: sgKEAP1, 1000 nM | 80.7
sgRNA knockout: sgKEAP1, 10000 nM | 68.5
sgRNA knockout: sgNFE2L2, 10 nM | 85.2
sgRNA knockout: sgNFE2L2, 100 nM | 77.3
sgRNA knockout: sgNFE2L2, 1000 nM | 92.9
sgRNA knockout: sgNFE2L2, 10000 nM | 79.3
sgRNA knockout: sgSLC35F2, 10 nM | 97.3
sgRNA knockout: sgSLC35F2, 100 nM | 93.4
sgRNA knockout: sgSLC35F2, 1000 nM | 88.1
sgRNA knockout: sgSLC35F2, 10000 nM | 74.2
sgRNA knockout: sgXBP1, 10 nM | 102
sgRNA knockout: sgXBP1, 100 nM | 87.8
sgRNA knockout: sgXBP1, 1000 nM | 96
sgRNA knockout: sgXBP1, 10000 nM | 78.8

CC(C)(C#N)c1ccc(N2C(=O)OCc3cnc4ccc(-c5cnc6ccccc6c5)cc4c32)cc1
Settings | relative cell number
sgRNA knockout: sgATF3, 10 nM | 101
sgRNA knockout: sgATF3, 100 nM | 96.9
sgRNA knockout: sgATF3, 1000 nM | 87
sgRNA knockout: sgATF3, 10000 nM | 49.8
sgRNA knockout: sgATF4, 10 nM | 107
sgRNA knockout: sgATF4, 100 nM | 104
sgRNA knockout: sgATF4, 1000 nM | 84.4
sgRNA knockout: sgATF4, 10000 nM | 51.9
sgRNA knockout: sgATF6, 10 nM | 98.3
sgRNA knockout: sgATF6, 100 nM | 97.3
sgRNA knockout: sgATF6, 1000 nM | 86.4
sgRNA knockout: sgATF6, 10000 nM | 51.9
sgRNA knockout: sgATG7, 10 nM | 91.7
sgRNA knockout: sgATG7, 100 nM | 103
sgRNA knockout: sgATG7, 1000 nM | 102
sgRNA knockout: sgATG7, 10000 nM | 52.3
sgRNA knockout: sgERN1, 10 nM | 108
sgRNA knockout: sgERN1, 100 nM | 102
sgRNA knockout: sgERN1, 1000 nM | 83
sgRNA knockout: sgERN1, 10000 nM | 48.8
sgRNA knockout: sgHSF1, 10 nM | 97.4
sgRNA knockout: sgHSF1, 100 nM | 105
sgRNA knockout: sgHSF1, 1000 nM | 86.6
sgRNA knockout: sgHSF1, 10000 nM | 53.5
sgRNA knockout: sgHSF2, 10 nM | 97
sgRNA knockout: sgHSF2, 100 nM | 83.6
sgRNA knockout: sgHSF2, 1000 nM | 80.04
sgRNA knockout: sgHSF2, 10000 nM | 44.6
sgRNA knockout: sgKEAP1, 10 nM | 105
sgRNA knockout: sgKEAP1, 100 nM | 86.9
sgRNA knockout: sgKEAP1, 1000 nM | 74.7
sgRNA knockout: sgKEAP1, 10000 nM | 46.2
sgRNA knockout: sgNFE2L2, 10 nM | 99.1
sgRNA knockout: sgNFE2L2, 100 nM | 100
sgRNA knockout: sgNFE2L2, 1000 nM | 94.83
sgRNA knockout: sgNFE2L2, 10000 nM | 45.7
sgRNA knockout: sgSLC35F2, 10 nM | 102
sgRNA knockout: sgSLC35F2, 100 nM | 112
sgRNA knockout: sgSLC35F2, 1000 nM | 73.4
sgRNA knockout: sgSLC35F2, 10000 nM | 50.1
sgRNA knockout: sgXBP1, 10 nM | 108
sgRNA knockout: sgXBP1, 100 nM | 95
sgRNA knockout: sgXBP1, 1000 nM | 91.1
sgRNA knockout: sgXBP1, 10000 nM | 53
